Laboratory results: PubChem BioAssay AID743255 (National Center for Advancing Translational Sciences (NCATS), 2014)
About 910 (0.23%) of roughly 390,000 compounds were called active. The inconclusive results got no clear call from the source; some entries with a clear call stand among them for comparison. Calls come from the whole dose curve; as a rule, active = well fitted inhibition curve with a large enough effect; inconclusive = small, poorly fitted or top-dose-only effect; inactive = no such curve, though single readings can be large or run the other way. Potencies beside an inconclusive call are fits to weak or partial responses and may not hold up.

Sequences of proteins named here, by UniProt entry; tags and fusion partners are left off. A change or cut given only in a name is not applied to a line headed by its entry.
UniProt O94782: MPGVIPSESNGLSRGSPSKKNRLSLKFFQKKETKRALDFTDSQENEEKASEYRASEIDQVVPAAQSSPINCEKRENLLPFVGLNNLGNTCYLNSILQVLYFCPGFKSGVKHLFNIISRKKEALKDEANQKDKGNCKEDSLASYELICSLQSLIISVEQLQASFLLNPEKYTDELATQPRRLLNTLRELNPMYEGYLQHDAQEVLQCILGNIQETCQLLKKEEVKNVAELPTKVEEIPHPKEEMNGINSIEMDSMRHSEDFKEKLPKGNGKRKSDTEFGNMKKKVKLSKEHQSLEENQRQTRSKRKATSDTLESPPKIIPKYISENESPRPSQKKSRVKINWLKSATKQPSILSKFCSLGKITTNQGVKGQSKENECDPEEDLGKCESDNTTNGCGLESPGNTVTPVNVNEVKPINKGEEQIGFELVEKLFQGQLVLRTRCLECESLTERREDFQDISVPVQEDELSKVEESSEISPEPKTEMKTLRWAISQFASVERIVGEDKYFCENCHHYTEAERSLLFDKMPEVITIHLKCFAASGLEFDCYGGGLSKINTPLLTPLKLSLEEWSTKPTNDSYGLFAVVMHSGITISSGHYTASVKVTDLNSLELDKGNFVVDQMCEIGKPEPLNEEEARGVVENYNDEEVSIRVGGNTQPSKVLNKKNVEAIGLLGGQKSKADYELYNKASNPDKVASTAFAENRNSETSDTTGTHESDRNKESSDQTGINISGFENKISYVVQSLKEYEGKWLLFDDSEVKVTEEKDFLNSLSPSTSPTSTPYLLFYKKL

target: Ubiquitin carboxyl-terminal hydrolase 1 (Homo sapiens) (UniProt O94782); experiment: Inhibitors of USP1/UAF1: Primary Screen; settings: recombinant USP1/UAF1, Ub-Rhodamine cleavage fluorescence; activity change, negative = inhibition: at 57.1 µM (top of the series); note: nearly all actives have a fitted effect of over 60% in size
How it was run: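 1 nM enzyme complex + cpd, 15 min RT; start with Ub-Rho 150nM final; kinetic fluorescence ex 480/em 540, 6 reads q60 s. Buffer 50mM HEPES pH 7.8, 0.5mM EDTA, 0.1 mg/ml BSA, 1mM TCEP, 0.01% Tween-20.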
% is set by controls: 0 for no effect and ±100 for the full control effect; potency is the fitted concentration of half-maximal effect.

Potency, active:
COc1ccc(C2=CC3=C(Br)C(=O)C(C)(OC(=O)c4cccs4)C(=O)C3=CO2)cc1 (stereo unspecified) 35.5 µM, Cc1ccc(NC2=CC(=O)C(=O)c3ccccc32)cc1 25.1 µM, O=C1C(N2CCOCC2)=C(n2nnc3ccccc32)C(=O)c2ccccc21 14.1 µM

Potency, inconclusive:
CC(C)Sc1oc(-c2ccco2)nc1S(=O)(=O)c1ccccc1 25.1 µM [inhibitor, partial curve], COC(=O)c1c[nH]c2c1-c1cc(C(=O)OCc3ccccc3)n(S(=O)(=O)c3ccc(C)cc3)c1C(=O)C2=O 5.62 µM [inhibitor, full curve], Cc1ccc(C(CC(=O)Nc2ccc(C)cc2C)N2Cc3ccccc3C2=O)cc1 (stereo unspecified) 6.31 µM [inhibitor, single point], C=CCNc1ccccc1S(=O)(=O)NCc1ccccc1 3.55 µM [inhibitor, full curve, poor fit], COc1ccc(N2CCN(c3cc(C)nc4ccc(OC)cc34)CC2)cc1 25.1 µM [inhibitor, single point], O=C(Nc1nccs1)c1ccc(N2C(=O)C3CCCCC3C2=O)cc1 (stereo unspecified) 22.4 µM [inhibitor, single point], CC(C)NC(=O)N(C)C[C@H]1OCCCC[C@H](C)Oc2ccc(NC(=O)NC3CCCCC3)cc2C(=O)N([C@H](C)CO)C[C@@H]1C 0.282 µM [inhibitor, full curve], Cn1c(=O)c2ccccc2n2c(CCC(=O)N3CCN(c4cccc(Cl)c4)CC3)nnc12 0.794 µM [inhibitor, full curve], O=C1c2cc(Br)ccc2N(Cc2ccc(Br)cc2)S(=O)(=O)C1c1cc(Cl)c(Cl)cc1[N+](=O)[O-] (stereo unspecified) 17.8 µM [inhibitor, partial curve], COCC1CCN(Cc2cn[nH]c2-c2cc(OC)c(OC)c(OC)c2)CC1 4.47 µM [inhibitor, single point], CCN1C(=O)/C(=C\c2ccc(-c3ccc([N+](=O)[O-])cc3OC)o2)SC1=Nc1cccc(C(=O)O)c1 39.8 µM [inhibitor, partial curve], Cc1ccc(-c2cc3nc(-c4ccccc4)cc(NCCCO)n3n2)cc1 0.141 µM [inhibitor, full curve, poor fit], COc1ccc2cc(C(=O)Nc3c(C)n(C)n(-c4ccccc4)c3=O)sc(=O)c2c1OC 35.5 µM [inhibitor, single point], CC(C)N1CCc2c(sc(N)c2C#N)C1 31.6 µM [inhibitor, partial curve], COC(=O)CCCC1=CC2=C(c3ccccc3)C(=O)C(C)(OC(=O)C3CCCC3)C(=O)C2=CN1CC(C)C (stereo unspecified) 0.282 µM [inhibitor, full curve, poor fit], C[C@@H](OC(=O)c1[nH]cnc1C(=O)N1CCc2ccccc2C1)c1ccccc1 50.1 µM [inhibitor, partial curve, poor fit], Cc1ccc(-c2c[n+]3c(n2-c2ccccc2)CCC3)cc1 7.08 µM [inhibitor, full curve, poor fit], COc1ccccc1NC(=S)N(CCCN1CCOCC1)Cc1cn(C)c2ccccc12 28.2 µM [inhibitor, partial curve], Cc1ccc(C(=O)Nc2nc3ccccc3c(=O)s2)cc1 5.01 µM [inhibitor, partial curve], Nc1ccc(C#Cc2c(-c3ccsc3)oc3ccc(N4CCOCC4)cc23)cc1 14.1 µM [inhibitor, partial curve, poor fit], CS(=O)(=O)c1sc(C#N)c2c1C(=O)CC(c1ccccc1)C2 (stereo unspecified) 10 µM [inhibitor, partial curve], O=c1cc(-c2ccccc2Cl)oc2cc(O)cc(O)c12 50.1 µM [inhibitor, partial curve, poor fit], COc1ccc(N=Cc2cc(Cc3ccccc3Cl)cc([N+](=O)[O-])c2O)cc1OC 3.98 µM [inhibitor, full curve], COc1ccc(OCC(O)CNC(=O)Nc2ccc(Cl)cc2)cc1 (stereo unspecified) 0.316 µM [inhibitor, full curve, poor fit], COc1ccc(-c2cc(C)no2)cc1S(=O)(=O)N1CCN(c2cccc(C)c2)C(C)C1 (stereo unspecified) 2.24 µM [inhibitor, full curve, poor fit], COc1cccc(CN2C(=O)c3ccccc3Sc3ccc(C(=O)NCc4ccccc4)cc32)c1 8.91 µM [inhibitor, full curve], O=C(CCCN1C(=O)/C(=C/c2cccs2)SC1=S)Nc1cc([N+](=O)[O-])ccc1O 44.7 µM [inhibitor, partial curve, poor fit], CCOC(=O)c1scc(-c2ccccc2)c1S(=O)(=O)N1CCN(c2ccc(Cl)cc2)CC1 1120 µM [inhibitor, partial curve, poor fit], O=C(Nc1ccc(Cl)cc1)c1cnn2c1NC(c1ccccc1)=CC2c1ccccc1 (stereo unspecified) 15.8 µM [inhibitor, partial curve, poor fit], COc1ccccc1C(=O)NCCOc1ccc(C(C)(C)C)cc1 50.1 µM [inhibitor, partial curve], CCc1ccc(NC(=O)CSc2nc3c([nH]c4ccccc43)c(=O)n2-c2ccc(C)cc2)cc1 0.631 µM [inhibitor, full curve, poor fit], Cc1c(Cl)cccc1-n1ncc(C(=O)NCCN2CCN(C)CC2)c1C1CCN(C(=O)OC(C)(C)C)CC1 5.01 µM [inhibitor, single point], C#CCOCCOCCOCCNc1nc(N2CCN(C(=O)Cn3cc(CCO)nn3)CC2)nc(N2CCN(C(=O)Cn3cc(CCCN=C(N)N)nn3)CC2)n1 39.8 µM [inhibitor, single point], O=C(c1c(O)cc(O)cc1O)C1c2c(cc(O)c3c2O[C@H](c2ccc(O)cc2)[C@@H](O)C3)OC1c1ccc(O)cc1 (stereo partly specified) 63.1 µM [inhibitor, partial curve, poor fit], CCN(CC)c1ccc(NC(=O)c2c(C)nn(-c3ccc(F)cc3)c2-n2cccc2)c(C)c1 31.6 µM [inhibitor, partial curve, poor fit], O=C(N/N=C/c1ccc(F)cc1)c1cccc(NC(=O)c2ccccc2Cl)c1 35.5 µM [inhibitor, partial curve, poor fit], [O-][n+]1c2ccccc2[n+]([O-])c2cc(O)ccc21 1.41 µM [inhibitor, partial curve, poor fit], CCCCSc1nc2sc3c(c2c(=O)[nH]1)CC(C)(CC)OC3 (stereo unspecified) 0.355 µM [inhibitor, full curve, poor fit], C/C(N)=C(/C#N)C(=O)CSc1nnc(Nc2cccc(C)c2)s1 5.01 µM [inhibitor, full curve, poor fit], Cc1cc(NC(=O)c2cncc(Br)c2)ccc1NC(=O)c1cc2ccccc2o1 7.94 µM [inhibitor, full curve]

Activity change, negative = inhibition, inactive:
COc1cc(-c2noc(C)c2-c2ccc(N(C)C)nc2)cc(OC)c1OC -25.1%, CC(=O)Oc1ccccc1C(=O)NC(C)CCc1ccccc1 (stereo unspecified) -2.3%, COc1ccc(C2Nc3ccccc3NC3=C2C(=O)CC(C)(C)C3)cc1O (stereo unspecified) -13.1%, COc1cc(/C=N/Nc2ccccc2[N+](=O)[O-])cc(OC)c1O -12.7%, COc1ccc(C(=O)Nc2ccc3nc(N4CCCCC4)cc(C)c3c2)c(OC)c1 -26%, Cc1cc(C)c2nc(C(F)(F)F)nc(N3CC(C)OC(C)C3)c2c1 (stereo unspecified) -10.1%, CC(=Cc1ccccc1)C(=O)c1ccccc1 -13%, CCc1nnc(NC(=O)c2nc(S(=O)(=O)Cc3ccccc3)ncc2Cl)s1 -12.8%, COc1ccc(C(=O)NC2(C(F)(F)F)C(=O)NC(C)=C2C#N)cc1 (stereo unspecified) -24%, CN=c1scc(C)n1/N=C/c1cc(Br)c(O)c(OC)c1 -9.43%, CCN1CCN(c2csc3ccc(Cl)cc3c2=O)CC1 -8.24%, COc1ccc(Cl)cc1NC(=O)C(C)n1nnc2sc3c(c2c1=O)CCCC3 (stereo unspecified) -9.33%, O=C(C1=NN(c2ccccc2)C2C(=O)N(c3ccc(Cl)cc3)C(=O)C12)c1ccccc1 (stereo unspecified) -24.7%, Cc1ccc(/C=C/C(=O)c2c(C)nc3ccccn23)cc1 -25.3%, O=C(Nc1ccccc1N1CCN(C(=O)c2ccc(Cl)cc2)CC1)c1cc2ccccc2o1 0.166%, CCOC(=O)C1=C(C)N=C2SCCC(=O)N2C1c1cc(Br)ccc1OC (stereo unspecified) -16.6%, COc1ccc(C(=O)NN/C=C/C(=O)c2ccc(Br)cc2)cc1 -2.82%, O=C(Nc1ccccc1)c1ccc(NCCN2C(=O)CCC2=O)c([N+](=O)[O-])c1 7.63%, CCOC(=O)C(/C(C)=N/NC(=O)c1ccccc1[N+](=O)[O-])C(C)C (stereo unspecified) -7.6%, CC(O)CNCCNCc1c(OCc2ccccc2)ccc2ccccc12 (stereo unspecified) -17.5%, O=C(CCc1ccccc1)c1ccc2c(c1)OCCCO2 -17.2%, Cc1cc(OCC(O)CN2CCN(c3ccccn3)CC2)cc(C)c1Cl (stereo unspecified) -23.5%

Activity change, negative = inhibition, inconclusive:
NC(=O)CC(NC(=O)Cc1cccc2ccccc12)c1ccc(NC2CCCCCCC2)c([N+](=O)[O-])c1 (stereo unspecified) -14.4% [inhibitor]
